Hit rate of the full screen: of about 52,000 sequences, about 210 (0.4%) were called active.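 Rule for the calls: active = gene whose silencing raises cell survival under the drug, median off-target-corrected z-score across its silencing RNAs 2 or more; inactive = the rest.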 The list shows a part of the results.
test: Resistance to Poly (ADP-Ribose) Polymerase inhibitor: Gene Identification via Genome-wide siRNA Screen; settings: mouse BRCA2 R2336H ES cells, olaparib, CellTiter-Glo viability; stronger effect = higher value
Procedure, shortened: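 Genome-wide siRNA screen (3 siRNAs/gene, 20 nM) in mouse ES cells carrying hypomorphic BRCA2 R2336H; olaparib 500 nM added 48 h post-transfection, CellTiter-Glo viability 72 h later. Normalized to plate-median negative control; MAD z-scores, gene median, seed-adjusted.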

Row | Sequence | z-score
1 | CCGUAUCCAUUCUGAACGUTT against 2410081M15Rik | inactive: -0.219
2 | CCAGACUUCUUGUAGUUAUTT against Tpx2 | inactive: -1.49
3 | GGAUUCAGCAAAUGCUUCCTT against Rcor3 | inactive: 1.88
4 | CCUCUUUCUAGAGCGCAUCTT against Kcnk12 | inactive: 0.578
5 | GGUGACUACUACACGGACUTT against Cdkl1 | inactive: -0.127
6 | GGUGCAUACACUGAAGGAATT against Golga2 | inactive: -0.824
7 | CCUUUGUCCAUGUUACCGATT against Rps14 | inactive: -3.29
8 | GGUGGUAUCGAUUUUGCUUTT against Cbx7 | inactive: -0.556
9 | GCUUAAUUCUUUUCAACGUTT against Gng2 | inactive: 0.261
10 | GGAAAUUUGCCAACAUACUTT against Sah | inactive: -1.23
11 | GGCAAAUCCAAAGUUGUCUTT against 4921515A04Rik | inactive: 0.536
12 | CCCGCACACCAAUUUCACGTT against Rnf128 | inactive: 0.861
13 | GGCCAACAUCAAAAUCGCCTT against Mark4 | inactive: 0.126
14 | CCAGUGGAAAUAACUUGUGTT against 2410018C17Rik | inactive: 1.05
15 | GGUUUUGACAUCACAUUCUTT against Dufd1 | inactive: -0.386
16 | GGAAAAGUAUCCAUGUCACTT against Impa1 | inactive: 0.589
17 | GGAGACAUGAUUAAAGCUATT against Ubxd3 | inactive: -0.443
18 | CCCAUCUAUUAGAAUUGAGTT against Slc4a8 | inactive: 0.994
19 | GGCAGCAUAAGAGCUGUUCTT against Idb3 | inactive: 0.459
20 | CCUUGGUCUGAUCGACUUGTT against Gadd45g | inactive: 1.81
21 | GGGAGCUAUGUUGUUAAAATT against Amotl2 | inactive: 0.392
22 | CGACCUGAAAGAUUCGGAATT against Ppara | inactive: 0.668
23 | GGCUCAACUUUUGUGAUUCTT against Olfr895 | inactive: -0.00635
24 | CGACAUCCCAAUAAACAAGTT against Lcn3 | inactive: 0.561
25 | GGAAGAUAGACUUCCUCACTT against Pfdn5 | inactive: -1.14
26 | GGAAAUCAAGAAGUUUGAATT against Gmds | inactive: -0.869
27 | GGAAUUUAAGCUGUACACATT against 1700007I06Rik | inactive: -0.674
28 | GGCAGGUAUGCAGUGAAGATT against Paqr9 | inactive: -0.56
29 | GGAAUAAGAGGAAGGUUACTT against Nanos2 | inactive: -0.18
